Laboratory results published in the supplement of paper PMC10727501.
Counter-ions that a name gives are not always drawn. Some of the results follow. Repeats in this data set agree poorly, so a single value says little.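 Free-swimming zebrafish larvae were assessed for O-bend response probability to dark flashes (naive: first five; training: remaining flashes across four 60-flash blocks; test: later 60-flash block) and for OMR turning toward alternating leftward/rightward LED motion. Six treated larvae were compared against sixty 0.1% DMSO controls; hits required |SSMD|≥2.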

Assays:
Details in all cases: 10 µM; pre-incubation: 30-90 min
[1] = test system: Danio rerio larvae (5 dpf, TLF); assay: OMR-Perf (SSMD vs DMSO vehicle); higher = higher than vehicle (e.g. higher dark-flash O-bend response probability, or better optomotor performance)
[2] = test system: Danio rerio larvae (5 dpf, TLF); assay: Prob-Test (SSMD vs DMSO vehicle); higher = higher than vehicle (e.g. higher dark-flash O-bend response probability, or better optomotor performance)
[3] = test system: Danio rerio larvae (5 dpf, TLF); assay: Prob-Naive (SSMD vs DMSO vehicle); higher = higher than vehicle (e.g. higher dark-flash O-bend response probability, or better optomotor performance)
[4] = test system: Danio rerio larvae (5 dpf, TLF); assay: Prob-Train (SSMD vs DMSO vehicle); higher = higher than vehicle (e.g. higher dark-flash O-bend response probability, or better optomotor performance)

Structure (SMILES): Cc1ccc2c(=O)c3cccc(CC(=O)O)c3oc2c1C [DMXAA (Vadimezan)]
- OMR-Perf [1]: -0.391
- Prob-Test [2]: 0.0487
- Prob-Naive [3]: -0.82
- Prob-Train [4]: -0.737

Structure (SMILES): N[C@H](Cc1ccccc1)C(=O)O [D-Phenylalanine]
- OMR-Perf [1]: 0.0698
- Prob-Test [2]: 0.477
- Prob-Naive [3]: -0.0763
- Prob-Train [4]: 0.223

Structure (SMILES): COc1ncnc(NS(=O)(=O)c2ccc(N)cc2)c1OC [Sulfadoxine (Sulphadoxine)]
- OMR-Perf [1]: 0.166
- Prob-Test [2]: 0.138
- Prob-Naive [3]: 0.131
- Prob-Train [4]: 0.456

Structure (SMILES): C#Cc1cccc(Nc2ncnc3cc(OCCOC)c(OCCOC)cc23)c1 [Erlotinib HCl (OSI-744)]
- OMR-Perf [1]: 0.458
- Prob-Test [2]: -0.0493
- Prob-Naive [3]: -0.128
- Prob-Train [4]: -0.737

Structure (SMILES): O=N[O-].[Na+] [Sodium Nitrite]
- OMR-Perf [1]: -0.546
- Prob-Test [2]: -0.501
- Prob-Naive [3]: 0.00556
- Prob-Train [4]: -0.288

Structure (SMILES): C[C@]1(O)C[C@@H](c2nc(-c3ccc4ccc(-c5ccccc5)nc4c3)c3c(N)nccn32)C1 [OSI-906 (Linsitinib)]
- OMR-Perf [1]: -0.404
- Prob-Test [2]: -0.51
- Prob-Naive [3]: -1.11
- Prob-Train [4]: -0.769

Structure (SMILES): NC(=O)NO [Hydroxyurea]
- OMR-Perf [1]: 0.175
- Prob-Test [2]: 0.699
- Prob-Naive [3]: 0.121
- Prob-Train [4]: 0.075

Structure (SMILES): Cc1nc2ccc(CN(C)c3ccc(C(=O)N[C@@H](CCC(=O)O)C(=O)O)s3)cc2c(=O)[nH]1 [Raltitrexed]
- OMR-Perf [1]: -0.297
- Prob-Test [2]: -0.57
- Prob-Naive [3]: 0.0184
- Prob-Train [4]: -0.808

Structure (SMILES): CC(C)[C@H]1C(=O)N[C@@H](CCCNC(=N)N)C(=O)NCC(=O)N[C@@H](CC(=O)O)C(=O)N[C@H](Cc2ccccc2)C(=O)N1C [Cilengitide]
- OMR-Perf [1]: -0.29
- Prob-Test [2]: -0.352
- Prob-Naive [3]: -0.144
- Prob-Train [4]: -0.306

Structure (SMILES): CC(C)c1cc2c(N3CCN(C4=NCC(C)(C)S4)CC3)ncnc2s1 [MI-3 (Menin-MLL Inhibitor)]
- OMR-Perf [1]: -0.446
- Prob-Test [2]: -0.476
- Prob-Naive [3]: 0.587
- Prob-Train [4]: -0.274

Structure (SMILES): Nc1ccn([C@H]2CC[C@@H](CO)O2)c(=O)n1 [Zalcitabine]
- OMR-Perf [1]: 0.342
- Prob-Test [2]: 0.397
- Prob-Naive [3]: 0.549
- Prob-Train [4]: 0.0486

Structure (SMILES): CNCc1ccc(C)c(NC(=O)c2ccc(Nc3nc(-c4ccccc4)c4ccccc4n3)cc2)c1
- OMR-Perf [1]: -0.511
- Prob-Test [2]: -1.24
- Prob-Naive [3]: -0.825
- Prob-Train [4]: -1.77

Structure (SMILES): CN(CCOc1ccc(NS(C)(=O)=O)cc1)CCc1ccc(NS(C)(=O)=O)cc1 [Dofetilide]
- OMR-Perf [1]: -0.716
- Prob-Test [2]: -0.513
- Prob-Naive [3]: 0.471
- Prob-Train [4]: -0.311

Structure (SMILES): CN1CCCC1c1cccnc1.O=C(O)C(O)C(O)C(=O)O.O=C(O)C(O)C(O)C(=O)O (stereo unspecified) [Nicotine Ditartrate]
- OMR-Perf [1]: -1.04
- Prob-Test [2]: 0.572
- Prob-Naive [3]: -0.456
- Prob-Train [4]: -0.00846

Structure (SMILES): O=C(CCCCCN1C(=O)c2cccc3cccc(c23)C1=O)NO [Scriptaid]
- OMR-Perf [1]: 0.277
- Prob-Test [2]: 0.581
- Prob-Naive [3]: 0.245
- Prob-Train [4]: 0.354

Structure (SMILES): CC1(C)O[C@H]2CC(=O)OC[C@]23[C@H]2CC[C@@]4(C)[C@H](c5ccoc5)OC(=O)[C@@H]5O[C@]54[C@@]2(C)C(=O)C[C@@H]13 [Limonin]
- OMR-Perf [1]: -0.326
- Prob-Test [2]: -0.124
- Prob-Naive [3]: 0.146
- Prob-Train [4]: -0.125

Structure (SMILES): CC(C)NCC(O)c1ccc(O)c(O)c1.Cl (stereo unspecified) [Isoprenaline HCl]
- OMR-Perf [1]: 0.233
- Prob-Test [2]: 0.209
- Prob-Naive [3]: 0.394
- Prob-Train [4]: -0.0883

Structure (SMILES): CCc1c2c(nc3ccc(OC(=O)N4CCC(N5CCCCC5)CC4)cc13)-c1cc3c(c(=O)n1C2)COC(=O)[C@@]3(O)CC [Irinotecan]
- OMR-Perf [1]: -0.189
- Prob-Test [2]: -0.195
- Prob-Naive [3]: -0.266
- Prob-Train [4]: -0.169

Structure (SMILES): CCCCc1nc2cc(/C=C/C(=O)NO)ccc2n1CCN(CC)CC [Pracinostat (SB939)]
- OMR-Perf [1]: -0.174
- Prob-Test [2]: 0.585
- Prob-Naive [3]: -0.0813
- Prob-Train [4]: -0.0462

Structure (SMILES): CNC(=O)c1c(F)cccc1Nc1nc(Nc2cc3c(cc2OC)CCN3C(=O)CN(C)C)nc2[nH]ccc12
- OMR-Perf [1]: -0.232
- Prob-Test [2]: 0.172
- Prob-Naive [3]: 0.515
- Prob-Train [4]: 0.239

Structure (SMILES): CCCS(=O)(=O)Nc1ccc(F)c(C(=O)c2c[nH]c3ncc(-c4ccc(Cl)cc4)cc23)c1F [Vemurafenib (PLX4032, RG7204)]
- OMR-Perf [1]: 0.312
- Prob-Test [2]: -0.289
- Prob-Naive [3]: -0.0595
- Prob-Train [4]: -0.326

Structure (SMILES): C[C@H](Nc1ncnc2[nH]cnc12)c1cc2cccc(Cl)c2c(=O)n1-c1ccccc1
- OMR-Perf [1]: -0.106
- Prob-Test [2]: -0.128
- Prob-Naive [3]: 0.538
- Prob-Train [4]: 0.248

Structure (SMILES): Cc1ccccc1N1C(=O)c2cc(S(N)(=O)=O)c(Cl)cc2NC1C (stereo unspecified) [Metolazone]
- OMR-Perf [1]: -0.329
- Prob-Test [2]: 0.0454
- Prob-Naive [3]: 0.184
- Prob-Train [4]: 0.0982

Structure (SMILES): C#C[C@@]1(OC(C)=O)CC[C@H]2[C@@H]3CCC4=C[C@@H](OC(C)=O)CC[C@@H]4[C@@H]3CC[C@@]21C [Ethynodiol diacetate]
- OMR-Perf [1]: -0.741
- Prob-Test [2]: -1.54
- Prob-Naive [3]: -0.861
- Prob-Train [4]: -3.12
